# Data taken from PubChem BioAssay AID1347423 (Functional Genomics Laboratory (NCATS/FGL), 2020).
# Hit rate of the full screen: of about 52,000 sequences, about 210 (0.4%) were called active.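 Rule for the calls: active = gene whose silencing raises cell survival under the drug, median off-target-corrected z-score across its silencing RNAs 2 or more; inactive = the rest.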 Some of the results follow.
# Experiment: Resistance to Poly (ADP-Ribose) Polymerase inhibitor: Gene Identification via Genome-wide siRNA Screen
# Settings: mouse BRCA2 R2336H ES cells, olaparib, CellTiter-Glo viability; active compounds read high
# In short: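 Mouse BRCA2 R2336H ES cells were reverse-transfected with siRNA (20 nM final), treated at 48 h with 500 nM olaparib, and read by CellTiter-Glo after 72 h. Scores: MAD-based z per siRNA, median per gene, seed off-target correction.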
row,Sequence,z-score
1,GGCAUGUAGAGGACUAAUGTT against Cldn10,inactive: 0.827
2,GGAUCUUUUUGUUUUUCCUTT against Commd8,inactive: -0.283
3,CGAUAUUUAUAUCCACCUATT against 6430514L14Rik,inactive: -0.388
4,GGGCCACAGGAUCUCACUUTT against 1700009J07Rik,inactive: -0.418
5,GCUUGGUGAGACUUUAACCTT against Nhlh2,inactive: 0.765
6,GGUGAAGAGAUUGACGUGGTT against Lmyc1,inactive: 1.62
7,GGAUUUUUACAUUGAGUCUTT against Cdca5,inactive: -0.759
8,CCAGAAACUUAACAACGACTT against Bpgm,inactive: -0.0201
9,CCUACUCAAGUACCCUAAATT against Zfp59,inactive: -1.12
10,GCUGAUGGCGUACAUUGAATT against Fut10,inactive: -1.46
11,GCCGUCUACCCUGAUAACATT against Cp,inactive: -0.898
12,GGUAGAAGUGAAAUAUUCUTT against Ndufaf1,inactive: 2.23
13,GGGCAACGUAUUCACAUUATT against Manbal,inactive: -1.41
14,GGAUUCAAUUUUUUGCCAUTT against 2610029G23Rik,inactive: 0.845
15,GGACAGACUACACUUCUAUTT against BC008103,inactive: 2.95
16,GGAGUUGCUGUGUAUGACATT against Hspa1a,inactive: -1.35
17,GGAAAUAGACGCAAAAAUATT against 4833446K15Rik,inactive: -0.788
18,GGACUUGGUGACUUACUUCTT against Smpdl3b,inactive: 0.275
19,GGUAAAAGCUCAGAUUCACTT against Ncoa4,inactive: 2.39
20,GGAACUUUAUAAGGACUAUTT against Xlr4,inactive: -0.738
21,CCAUGUCUAUUCAAAAAGCTT against Wdr6,inactive: 0.546
22,CCCGCUACAACAACCUGAUTT against Chrnb4,inactive: -0.641
23,GGACAGACAAAUACAAGAGTT against 4930403O06Rik,inactive: 0.856
24,GUACAUGCCCUUUGAACAUTT against Clcn1,inactive: -0.975
25,GGAAGAAACCUACGUUGAATT against 1700007D05Rik,inactive: 0.717
26,GGAGAAUUUAGAGCUACCATT against Apg10l,inactive: 2.02

# Quoted at random: 2 records from the list, in no set order.
row,Sequence,z-score
5,GCUUGGUGAGACUUUAACCTT against Nhlh2,inactive: 0.765
25,GGAAGAAACCUACGUUGAATT against 1700007D05Rik,inactive: 0.717

# Following part

row,Sequence,z-score
1,GGGAGAGACCCAAAAAGGGTT against C230050L11,inactive: 0.827
2,GGCAGAGAUAACCUUUAAATT against Sphk1,inactive: 0.574
3,GCAGGGAUCUGCUAAGCUATT against Hey1,inactive: -0.113
4,GGAAUGUACUAGACCCGAGTT against Gstm2,inactive: 1.13
5,GGACGACAGCAAAGGGAAGTT against Tnnc1,inactive: 2.96
6,GCUACUAUUGUGUUCUGAATT against Drd1a,inactive: -0.386
7,CGGCAAAAUUAGCUAUUCATT against Exosc4,inactive: -0.934
8,CGGAGAGAUGGUGUGAACATT against Ik,inactive: -3.52
9,GGAAGAAGUGAUAAAGAGATT against Nts,inactive: 0.777
10,GGACAGUUGUCAUUGGCAUTT against E330036I19Rik,inactive: -0.898
11,CCGUUCACUAAUAAAAGGUTT against BC052040,inactive: 2.07
12,GGAGAGGAAUCAAGUGGUGTT against Lig1,inactive: 0.424
13,GCCUCAAGUAAAGUGGCUGTT against Furin,inactive: 0.0509
14,GGUAUAAAGAACUCUGUCATT against 5730599I05Rik,inactive: -1.08
15,CGAACUAGCAAUGUUUACUTT against Ptpn13,inactive: -0.567
16,CCGGUAAUGAGUUCAAGUGTT against Arsa,inactive: 0.348
17,GCCGAUGUAUGGAGUUUUCTT against Mei1,inactive: 0.783
18,GGCACAUAGCCAUACCAGATT against 1110064L07Rik,inactive: 0.729
19,GGAUUGGCAAGCAGCUAACTT against Dnase2a,inactive: 1.44
20,GGACACUAGUCGGCUGCUUTT against 1500034E06Rik,inactive: 1.12
21,GCCAUUAUGCCGACGUGGATT against Slc38a2,inactive: 0.824
22,GCAUUAGGAAUUCAAUUAGTT against Adamts1,inactive: -0.418
23,GCGACAACAUGCUUAGCACTT against Chi3l1,inactive: -0.747
24,CCCGAAGUAGUCUUUAUCGTT against Pafah1b3,inactive: 0.796
25,GGCAGUUUCUUCAGUUCUUTT against 9030408N13Rik,inactive: -2.2
26,GGCAAAGAACAUCAAGCAATT against Rutbc3,inactive: 1.94

row,Sequence,z-score
1,CGGGUGUUUGAAUGAUUUCTT against Mrps27,inactive: 0.0984
2,CGACCAAAAUCAAAACAGCTT against Defb12,inactive: 2.02
3,GCCACUGUGUGGAAUAAAUTT against Gif,inactive: 1.28
4,GCAUAUUGCCUACUUCUUCTT against Olfr982,inactive: -0.152
5,GGUGAGAAGCCUUAUCAUUTT against Klf2,inactive: 3.01
6,GGUGCCCACUAACUUAGAATT against Tbx21,inactive: 0.288
7,GCUAAAGAUUGACAAAGCUTT against Uqcrc2,inactive: 0.381
8,GGUGAUACACUGUAAUCUGTT against Msra,inactive: 0.455
9,GGGCAUCGUUUUCAUCUCATT against Wdr11,inactive: 0.349
10,GGAAGUGGCGAGGUUCUAUTT against Folr1,inactive: -1.6
11,GGUUCUGGAAGUGAAGGUGTT against Prg2,inactive: -2.23
12,CCCAAGAAUUGGAUUCCAGTT against Lta,inactive: 0.88
13,GCUAUCAACAAUCUUCGAATT against Azi1,inactive: 0.37
14,GGUGUGGUAUGCUUUCUCCTT against Ddx11,inactive: 1.4
15,GCACUGAAGCCUAGCUGUUTT against BC051142,inactive: -1.83
16,GGAAUAUCCUGACUUCUGATT against 4931431C16Rik,inactive: 0.162
17,GGAGUACAUUGUGAAUGUUTT against Tnr,inactive: -0.923
18,CCAUGCGGUUGUUCAAGUATT against Taf7l,inactive: 0.862
19,GGACUUCUACUCAGAAUUUTT against Nisch,inactive: 1.11
20,CUUGUCAAGUGAUGAAAUGTT against Xlr,inactive: 0.438
21,CCUAAAAGGAUCUUUCAUGTT against 9030616D13Rik,inactive: 1.47
22,GCCUGAUGCCUGCAUAAGUTT against Gla,inactive: 0.832
23,GCUUACUGACUUUGGAUGCTT against Mrgpra4,inactive: -1.11
24,GCUAGUUUGGACCAUACGGTT against Ehhadh,inactive: 1.28
25,GGAUCAAGUCUACAGCUAGTT against Olfr225,inactive: 0.319
26,GGAGACAUCCUAAAAUUUGTT against Sacy,inactive: 0.0222

# At a glance, some entries already given.
row,Sequence,z-score
19,GGACUUCUACUCAGAAUUUTT against Nisch,inactive: 1.11
20,CUUGUCAAGUGAUGAAAUGTT against Xlr,inactive: 0.438

# (next part)

row,Sequence,z-score
1,GGUUGUCUAUGAUUCAGGGTT against Creb3l4,inactive: 1.11
2,GGAACUAAUGACCAUUUUCTT against Lix1,inactive: 0.741
3,GGUGUUGAGUUCAAGUCUATT against E330009J07Rik,inactive: -1.2
4,CCUGGCUAAUGACUAGCUCTT against D730046L02Rik,inactive: -0.501
5,GCGAUGGUAUGUUGAAGGATT against 4930432E11Rik,inactive: -0.846
6,GCAAAAGUAUUUUGUGUCCTT against Aamp,inactive: -0.646
7,GGGCACCAGUGGUUAUUAATT against D4st1,inactive: 0.629
8,GCAGAAGCCUGUGGGAUCUTT against 1700065I17Rik,inactive: -0.638
9,GCAGCUUUUUGAGGUGUUATT against A530087D17Rik,inactive: 0.108
10,GGUCAAAGGACAAAGAUAATT against Apg7l,inactive: 1.21
11,GGAAGUGGAAGUUCUGAAGTT against Tgfb1i4,inactive: -0.753
12,GGACAUUUUAAUGUGCUCATT against BC036333,inactive: -1
13,CGAUCAUCAUUGGUUGCGGTT against 1700007K09Rik,inactive: -0.166
14,CCUGGAAGGAUUAUUGCACTT against Bteb1,inactive: -0.652
15,GGCUCGUUUAAACAACAUATT against 2310036D22Rik,inactive: -0.207
16,GCAACGGAGACUUCAGUAATT against 7030401O21Rik,inactive: -1.67
17,CCAGCAAAUAUCCUAGUAATT against 2700084L06Rik,inactive: -1.09
18,GCUUUUCAUGGACACAUUCTT against 2810405F18Rik,inactive: -1.23
19,GGAAACAUCUUGUUGCUUUTT against Chkb,inactive: 1.05
20,CCUGGUGCUUCGUAAUUACTT against Cyp11a1,inactive: 1.22
21,GGGAUUCAGAGAUCAUGCATT against Serf1,inactive: 0.421
22,GGACUUUCUGGACUCCCGATT against Wnt10a,inactive: 0.999
23,GCUAUGAUCAUAGUACGAUTT against Adam25,inactive: 0.238
24,GGUCUUCUCAAUAGCGAGGTT against Plce1,inactive: -0.644
25,GGAGGUUACAAUCCAUGAGTT against Anapc1,inactive: -2.36
26,GGACUUCACAAUCUCUUUCTT against Hck,inactive: 0.594
